HELM strings list residues between dots; [ac] is acetyl, [am] amide, other brackets name non-standard units.
Experiment: peptide synthesis
Details: whole synthesis, RP-HPLC

Substance | final HPLC purity [%]
PEPTIDE1{F.L.K.L.L.K.K.L.[Pen].[am]}$$$$V2.0 | 100.000
PEPTIDE1{F.L.K.L.L.K.K.[Pen].L.[am]}$$$$V2.0 | 100.000
PEPTIDE1{F.L.K.L.L.[Pen].K.L.L.[am]}$$$$V2.0 | 100.000
PEPTIDE1{F.L.K.L.[Pen].K.K.L.L.[am]}$$$$V2.0 | 100.000
PEPTIDE1{F.[Pen].K.L.L.K.K.L.L.[am]}$$$$V2.0 | 98.450
PEPTIDE1{L.K.L.L.K.K.L.L.[am]}$$$$V2.0 | 96.070
PEPTIDE1{L.K.[Pen].L.K.K.L.L.[am]}$$$$V2.0 | 100.000
PEPTIDE1{[Pen].L.K.A.K.K.L.L.[am]}$$$$V2.0 | 96.250
PEPTIDE1{[Pen].L.K.L.L.K.K.L.L.[am]}$$$$V2.0 | 98.900
